The target in this assay is human DGCR8 NC9 (residues 499-751) (human) (UniProt Q8WYQ5). The experiment in a line: SEC; size exclusion chromatography, last step of the purification; SEC buffer 400 mM NaCl, 20 mM Tris pH 8.0, 1 mM DTT; elution volumes compared (bat star HBD 13.8 mL; human HBD dimer; human NC9 monomer 2.6 mL later); both purified. On the technique in general: SEC sorts molecules by how far they enter the pores of the column.

These are yes or no findings as the source states them, for the method shown.

B1: human DGCR8 NC9 (residues 499-751) (domain or fragment, UniProt Q8WYQ5 499-751)
chain: TKKEFVINPNGKSEVCILHEYMQRVLKVRPVYNFFECENPSEPFGASVTIDGVTYGSGTASSKKLAKNKAARATLEILIPDFVKQTSEEKPKDSEELEYFNHISIEDSRVYELTSKAGLLSPYQILHECLKRNHGMGDTSIKFEVVPGKNQKSEYVMACGKHTVRGWCKNKRVGKQLASQKILQLLHPHVKNWGSLLRMYGRESSKMVKQETSDKSVIELQQYAKKNKPNLHILSKLQEEMKRLAEEREETRK
For the molecule B1, the binding entry is “no binding”.

The record behind these values is PMC3388087 (PLoS ONE, 2012).
